In assay [1] the target is T1, 5-HT2A receptor (Homo sapiens, UniProt P28223). The experiment in a line: Radioligand binding competition, filtration binding assay, 5-HT2A ([3H]-DOI). Also noted: expressed in transfected cells.
The target of assay [2] is T1, 5-HT2A receptor. Kind of assay: IP-One HTRF functional assay, 5-HT2A agonist mode. Format: cell-based. Also noted: expressed in transfected cells. In general terms: Time-resolved FRET reads energy transfer from a long-lived donor to a nearby acceptor.

Chains of the proteins cited; added tags and fusions are not shown.
UniProt P28223, whole entry: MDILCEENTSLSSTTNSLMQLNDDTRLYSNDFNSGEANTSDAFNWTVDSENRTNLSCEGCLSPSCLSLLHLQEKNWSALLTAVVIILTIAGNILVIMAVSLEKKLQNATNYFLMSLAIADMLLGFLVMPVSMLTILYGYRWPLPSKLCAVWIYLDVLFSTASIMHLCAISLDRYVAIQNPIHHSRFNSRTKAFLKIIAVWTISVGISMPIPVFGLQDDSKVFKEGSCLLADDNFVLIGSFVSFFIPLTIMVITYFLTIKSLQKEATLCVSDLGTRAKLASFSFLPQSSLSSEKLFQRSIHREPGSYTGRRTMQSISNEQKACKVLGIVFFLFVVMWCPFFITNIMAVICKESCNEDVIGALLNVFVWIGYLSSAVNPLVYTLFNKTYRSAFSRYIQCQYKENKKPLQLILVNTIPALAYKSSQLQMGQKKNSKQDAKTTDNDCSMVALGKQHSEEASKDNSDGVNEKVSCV

Broadly, the IC50 is the point on the concentration scale where inhibition reaches its midpoint. The Ki is the dissociation constant of the complex between target and ligand, obtained from inhibition or displacement. A high value points to a looser hold on the target. The EC50 is the midpoint of the concentration-response curve. A lower EC50 goes with a more potent agent. As to `[2H]c1c([2H])c([2H])c(CN2CC[C@@H](NC(=O)c3cc(Cl)c(NC)cc3OC)[C@H]2C)c([2H])c1[2H]` [Ex. 1 (10), 5-Chloro-N-((2R,3R)-1-((pentadeuterophenyl)methyl)-2-methylpyrrolidin-3-yl)-2-methoxy-4-(methylamino)benzamide], on 5-HT2A receptor [1], the half-maximal inhibitory concentration (IC50) turned out to be 24.1 nM and the affinity, expressed as Ki, was 9.4 nM. In addition, the EC50 at 5-HT2A receptor [2] is 5 nM.

In the case of `[2H]C([2H])([2H])Oc1cc(NC)c(Cl)cc1C(=O)N[C@@H]1CCN(Cc2ccccc2)[C@@H]1C` [Ex. 2 (18), 5-Chloro-N-((2R,3R)-1-((phenyl)methyl)-2-methylpyrrolidin-3-yl)-2-trideuteromethoxy-4-(methylamino)benzamide], on 5-HT2A receptor [1], the IC50 turned out to be 12.5 nM and affinity was put at a Ki of 9.9 nM. Further, the EC50 at 5-HT2A receptor [2] stood at 4.4 nM.

The values are drawn from US12365650B2, “Deuterated organic compounds and uses thereof” (ENGRAIL THERAPEUTICS, INC., priority 2023, dated 2025).
